The values below come from publication PMC6345817.

Chains of the proteins cited; added tags and fusions are not shown. Lines headed by an entry give the natural chain unless they say otherwise; changes in a name come on top.
UniProt Q8WY21: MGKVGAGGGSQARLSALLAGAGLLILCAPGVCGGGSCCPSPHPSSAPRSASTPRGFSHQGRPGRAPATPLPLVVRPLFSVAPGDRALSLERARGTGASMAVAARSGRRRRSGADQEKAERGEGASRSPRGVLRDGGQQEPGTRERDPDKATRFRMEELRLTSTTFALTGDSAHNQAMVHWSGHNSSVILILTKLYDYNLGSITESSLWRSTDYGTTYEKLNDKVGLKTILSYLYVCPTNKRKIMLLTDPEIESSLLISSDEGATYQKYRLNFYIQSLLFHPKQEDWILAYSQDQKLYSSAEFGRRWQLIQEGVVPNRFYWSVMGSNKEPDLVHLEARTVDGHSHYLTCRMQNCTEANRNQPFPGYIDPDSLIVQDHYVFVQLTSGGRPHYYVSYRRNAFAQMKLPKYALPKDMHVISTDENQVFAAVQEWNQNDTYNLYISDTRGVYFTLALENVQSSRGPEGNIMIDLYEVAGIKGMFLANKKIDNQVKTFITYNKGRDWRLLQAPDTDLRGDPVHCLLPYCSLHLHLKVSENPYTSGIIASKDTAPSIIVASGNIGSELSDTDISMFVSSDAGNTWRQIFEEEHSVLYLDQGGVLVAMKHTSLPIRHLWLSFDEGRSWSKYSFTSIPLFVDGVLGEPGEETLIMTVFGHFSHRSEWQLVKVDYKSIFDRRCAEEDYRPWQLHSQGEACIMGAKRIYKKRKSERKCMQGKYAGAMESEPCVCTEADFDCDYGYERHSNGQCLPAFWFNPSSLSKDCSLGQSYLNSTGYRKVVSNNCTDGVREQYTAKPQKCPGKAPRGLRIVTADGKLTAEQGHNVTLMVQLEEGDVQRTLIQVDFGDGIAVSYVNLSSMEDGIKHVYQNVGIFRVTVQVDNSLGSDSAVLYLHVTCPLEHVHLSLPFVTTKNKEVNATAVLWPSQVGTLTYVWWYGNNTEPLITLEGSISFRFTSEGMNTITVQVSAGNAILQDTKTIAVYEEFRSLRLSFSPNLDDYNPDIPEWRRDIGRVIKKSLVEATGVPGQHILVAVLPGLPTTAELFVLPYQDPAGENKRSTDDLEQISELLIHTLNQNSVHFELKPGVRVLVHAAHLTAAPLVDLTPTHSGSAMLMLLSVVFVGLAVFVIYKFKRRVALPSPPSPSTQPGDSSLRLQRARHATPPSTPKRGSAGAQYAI

Test [1] deals with SorLA cytoplasmic domain (K2160–A2214) in fusion with LexA (human (from the printed RefSeq entry)). Nature of the test: two-hybrid; commercial library screen by Hybrigenics: SorLA cd as bait, adult human brain random-primed cDNA library in the Y187 yeast strain, by mating.
Test [2] deals with SORCS1B cytoplasmic domain K1121-I1168 (pB27 bait) (human (from the printed RefSeq entry)) (UniProt Q8WY21). Nature of the test: two-hybrid; pairwise test: pB27 (LexA) bait and pP6 prey plasmids; cells spotted on plates without Leu/Trp/His; 3-AT against bait auto-activation (10 or 15 mM for SorLA-cd, 20 mM for MPR46-cd); done three times.
The target of test [3] is SORCS3 cytoplasmic domain K1145-V1122 (pB27 bait) (human (from the printed RefSeq entry)). Described as above.
Test [4] deals with SorLA cytoplasmic domain (K2160–A2214) in fusion with LexA (human (from the printed RefSeq entry)). The description is as above.
Test [5] has as its target SorLA-cd Δ20–54 (pB27 bait) (human (from the printed RefSeq entry)). The test is described as above.
Test [6] addresses SorLA-cd Δ29–54 (pB27 bait) (human (from the printed RefSeq entry)). The description is as above.
The target in test [7] is SorLA-cd Δ51–54 (pB27 bait) (human (from the printed RefSeq entry)). The description is as above.

Results are given in words; binding and its absence hold for the method and conditions named. For some assays here: Binding can be weak; no strength is given.

B1: GGA-1 VHS domain clones from the adult human brain cDNA library (domain or fragment, UniProt Q9UJY5 17-147)
chain: ATNPLNKELDWASINGFCEQLNEDFEGPPLATRLLAHKIQSPQEWEAIQALTVLETCMKSCGKRFHDEVGKFRFLNELIKVVSPKYLGSRTSEKVKNKILELLYSWTVGLPEEVKIAEAYQMLKKQGIVKS
In the case of B1, the binding entry in test [1] is “binds”.

B2: HSPA12A fragment T513-Y675 (pP6 prey clone identified by Hybrigenics) (domain or fragment, UniProt O43301 513-675)
chain: TILKGAVLFGLDPAVIKVRRSPLTYGVGVLNRYVEGKHPPEKLLVKDGTRWCTDVFDKFISADQSVALGELVKRSYTPAKPSQLVIVINIYSSEHDNVSFITDPGVKKCGTLRLDLTGTSGTAVPARREIQTLMQFGDTEIKATAIDIATSKSVKVGIDFLNY
As to B2, the binding result is “binds” in test [1]; “no binding” in test [2]; “no binding” in test [3]; “binds” in test [4]; “no binding” in test [5]; “no binding” in test [6]. The binding result in test [7] was “binds”.
